In article PMC9277853:
No constants are given. Whether binding was seen depends on the method and setting. In cells and extracts the contact can be indirect. Here binding means that the protein was enriched with, or labelled near, the bait; the list need not be complete. Sequences can lack the tags named with a protein.

Chains of the proteins cited; added tags and fusions are not shown. Residues count along the entry.
UniProt P12004: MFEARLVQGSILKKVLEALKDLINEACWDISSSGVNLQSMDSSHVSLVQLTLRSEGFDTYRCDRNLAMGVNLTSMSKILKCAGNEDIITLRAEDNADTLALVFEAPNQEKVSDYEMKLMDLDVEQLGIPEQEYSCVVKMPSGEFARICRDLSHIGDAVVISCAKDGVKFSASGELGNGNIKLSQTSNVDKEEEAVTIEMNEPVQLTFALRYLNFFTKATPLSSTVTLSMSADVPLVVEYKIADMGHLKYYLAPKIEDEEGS
UniProt O00571: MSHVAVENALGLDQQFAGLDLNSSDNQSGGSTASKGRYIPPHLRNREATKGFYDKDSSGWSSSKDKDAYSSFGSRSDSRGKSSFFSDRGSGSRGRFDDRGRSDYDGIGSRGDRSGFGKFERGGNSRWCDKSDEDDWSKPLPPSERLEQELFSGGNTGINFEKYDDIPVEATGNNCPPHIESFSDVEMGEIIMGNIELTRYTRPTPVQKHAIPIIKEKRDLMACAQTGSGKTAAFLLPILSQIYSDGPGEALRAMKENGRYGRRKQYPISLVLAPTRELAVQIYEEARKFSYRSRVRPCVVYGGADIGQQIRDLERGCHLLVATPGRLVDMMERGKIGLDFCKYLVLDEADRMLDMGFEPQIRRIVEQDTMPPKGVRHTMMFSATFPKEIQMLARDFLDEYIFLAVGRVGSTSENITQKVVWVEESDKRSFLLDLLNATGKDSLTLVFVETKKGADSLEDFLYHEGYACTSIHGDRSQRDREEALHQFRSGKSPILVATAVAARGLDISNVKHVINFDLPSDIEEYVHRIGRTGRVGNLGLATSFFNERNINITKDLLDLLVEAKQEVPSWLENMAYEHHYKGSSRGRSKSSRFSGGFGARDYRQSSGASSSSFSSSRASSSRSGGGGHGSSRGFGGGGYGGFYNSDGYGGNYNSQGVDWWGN
UniProt P06748: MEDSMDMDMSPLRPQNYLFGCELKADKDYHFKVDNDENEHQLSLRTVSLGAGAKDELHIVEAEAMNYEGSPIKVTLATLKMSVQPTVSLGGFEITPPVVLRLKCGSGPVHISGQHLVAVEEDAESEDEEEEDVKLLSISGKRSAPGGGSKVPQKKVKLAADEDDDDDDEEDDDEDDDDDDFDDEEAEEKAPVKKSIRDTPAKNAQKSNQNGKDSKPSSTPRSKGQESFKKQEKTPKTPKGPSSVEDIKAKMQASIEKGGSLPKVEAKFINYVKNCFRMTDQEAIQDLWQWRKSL
UniProt P50750: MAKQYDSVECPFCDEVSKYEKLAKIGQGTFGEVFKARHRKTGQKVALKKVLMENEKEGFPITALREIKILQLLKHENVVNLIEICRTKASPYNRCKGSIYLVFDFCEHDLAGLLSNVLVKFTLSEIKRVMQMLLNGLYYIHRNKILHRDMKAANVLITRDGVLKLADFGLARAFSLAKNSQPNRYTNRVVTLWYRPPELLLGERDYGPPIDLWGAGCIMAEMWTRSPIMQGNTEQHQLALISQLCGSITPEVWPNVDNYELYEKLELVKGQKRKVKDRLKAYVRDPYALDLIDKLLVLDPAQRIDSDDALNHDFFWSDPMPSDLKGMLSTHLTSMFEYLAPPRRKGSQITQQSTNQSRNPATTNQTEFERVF
UniProt Q9UBU8: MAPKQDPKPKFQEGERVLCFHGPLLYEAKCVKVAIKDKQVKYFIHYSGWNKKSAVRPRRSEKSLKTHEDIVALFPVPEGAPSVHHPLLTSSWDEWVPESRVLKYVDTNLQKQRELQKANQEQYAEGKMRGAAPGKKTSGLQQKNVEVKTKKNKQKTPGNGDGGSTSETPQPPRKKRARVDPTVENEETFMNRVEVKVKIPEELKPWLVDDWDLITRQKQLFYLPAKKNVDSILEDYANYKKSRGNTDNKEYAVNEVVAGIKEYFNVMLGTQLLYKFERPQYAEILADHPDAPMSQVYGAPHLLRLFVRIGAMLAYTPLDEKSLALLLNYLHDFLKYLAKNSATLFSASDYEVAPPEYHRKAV
UniProt Q92905: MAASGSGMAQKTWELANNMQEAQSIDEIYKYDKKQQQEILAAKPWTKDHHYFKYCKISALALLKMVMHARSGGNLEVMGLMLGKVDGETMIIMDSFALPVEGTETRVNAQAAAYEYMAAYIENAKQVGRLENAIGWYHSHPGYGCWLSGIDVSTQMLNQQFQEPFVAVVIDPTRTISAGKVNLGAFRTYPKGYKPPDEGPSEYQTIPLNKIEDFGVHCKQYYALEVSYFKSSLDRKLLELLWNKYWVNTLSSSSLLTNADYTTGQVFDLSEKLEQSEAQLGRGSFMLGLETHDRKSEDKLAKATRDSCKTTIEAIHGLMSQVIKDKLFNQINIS
UniProt Q7KZF4: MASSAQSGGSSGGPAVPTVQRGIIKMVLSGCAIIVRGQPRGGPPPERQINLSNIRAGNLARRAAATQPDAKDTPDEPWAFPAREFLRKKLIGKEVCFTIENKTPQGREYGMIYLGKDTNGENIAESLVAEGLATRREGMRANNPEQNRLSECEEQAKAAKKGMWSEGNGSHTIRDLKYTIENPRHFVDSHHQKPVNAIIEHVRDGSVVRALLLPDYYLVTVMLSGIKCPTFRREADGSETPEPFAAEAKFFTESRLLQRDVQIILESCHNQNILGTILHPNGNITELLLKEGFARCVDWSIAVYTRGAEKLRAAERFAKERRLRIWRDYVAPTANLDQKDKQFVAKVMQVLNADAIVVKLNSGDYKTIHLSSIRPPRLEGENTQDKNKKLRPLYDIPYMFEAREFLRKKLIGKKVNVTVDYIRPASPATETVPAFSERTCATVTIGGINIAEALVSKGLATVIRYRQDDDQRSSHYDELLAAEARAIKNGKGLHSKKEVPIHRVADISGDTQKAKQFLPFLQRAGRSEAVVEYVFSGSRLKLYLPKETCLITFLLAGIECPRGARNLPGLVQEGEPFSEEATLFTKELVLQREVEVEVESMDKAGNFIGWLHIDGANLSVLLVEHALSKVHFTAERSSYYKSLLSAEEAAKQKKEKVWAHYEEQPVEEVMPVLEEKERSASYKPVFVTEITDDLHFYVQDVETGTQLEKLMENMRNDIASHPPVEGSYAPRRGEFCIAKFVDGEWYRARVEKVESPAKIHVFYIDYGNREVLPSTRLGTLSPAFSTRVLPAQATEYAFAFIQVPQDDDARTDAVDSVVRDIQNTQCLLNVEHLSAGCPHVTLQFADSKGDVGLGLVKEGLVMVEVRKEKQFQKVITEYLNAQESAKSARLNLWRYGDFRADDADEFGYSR
UniProt P52948, residues 1-880: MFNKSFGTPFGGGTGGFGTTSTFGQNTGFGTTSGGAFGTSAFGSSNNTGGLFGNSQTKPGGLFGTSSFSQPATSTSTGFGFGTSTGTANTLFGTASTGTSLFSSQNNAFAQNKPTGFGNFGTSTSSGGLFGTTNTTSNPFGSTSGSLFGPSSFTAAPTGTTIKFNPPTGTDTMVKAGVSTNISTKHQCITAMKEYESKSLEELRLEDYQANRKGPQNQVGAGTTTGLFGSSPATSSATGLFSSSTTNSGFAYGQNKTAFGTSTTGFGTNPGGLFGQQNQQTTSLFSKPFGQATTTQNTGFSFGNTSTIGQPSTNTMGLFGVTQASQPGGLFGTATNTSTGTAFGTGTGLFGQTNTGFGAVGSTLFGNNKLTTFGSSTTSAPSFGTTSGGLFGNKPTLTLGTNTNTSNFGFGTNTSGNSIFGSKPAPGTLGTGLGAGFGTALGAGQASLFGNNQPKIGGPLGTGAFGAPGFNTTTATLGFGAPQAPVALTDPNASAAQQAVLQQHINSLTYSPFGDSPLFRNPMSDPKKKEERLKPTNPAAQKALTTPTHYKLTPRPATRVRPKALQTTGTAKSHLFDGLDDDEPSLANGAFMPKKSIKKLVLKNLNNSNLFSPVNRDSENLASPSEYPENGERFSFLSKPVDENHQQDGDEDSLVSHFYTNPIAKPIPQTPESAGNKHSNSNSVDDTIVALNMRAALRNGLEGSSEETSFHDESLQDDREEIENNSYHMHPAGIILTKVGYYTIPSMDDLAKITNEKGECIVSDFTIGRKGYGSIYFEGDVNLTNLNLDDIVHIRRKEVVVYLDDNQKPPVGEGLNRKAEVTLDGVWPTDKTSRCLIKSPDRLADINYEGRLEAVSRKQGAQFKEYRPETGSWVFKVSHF
UniProt Q07955: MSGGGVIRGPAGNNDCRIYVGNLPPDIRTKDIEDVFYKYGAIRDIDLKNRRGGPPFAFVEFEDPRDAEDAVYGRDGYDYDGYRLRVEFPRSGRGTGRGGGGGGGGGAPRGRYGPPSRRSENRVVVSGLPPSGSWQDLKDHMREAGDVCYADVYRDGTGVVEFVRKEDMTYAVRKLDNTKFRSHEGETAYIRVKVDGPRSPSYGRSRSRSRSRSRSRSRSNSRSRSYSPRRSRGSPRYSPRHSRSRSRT
UniProt P09874: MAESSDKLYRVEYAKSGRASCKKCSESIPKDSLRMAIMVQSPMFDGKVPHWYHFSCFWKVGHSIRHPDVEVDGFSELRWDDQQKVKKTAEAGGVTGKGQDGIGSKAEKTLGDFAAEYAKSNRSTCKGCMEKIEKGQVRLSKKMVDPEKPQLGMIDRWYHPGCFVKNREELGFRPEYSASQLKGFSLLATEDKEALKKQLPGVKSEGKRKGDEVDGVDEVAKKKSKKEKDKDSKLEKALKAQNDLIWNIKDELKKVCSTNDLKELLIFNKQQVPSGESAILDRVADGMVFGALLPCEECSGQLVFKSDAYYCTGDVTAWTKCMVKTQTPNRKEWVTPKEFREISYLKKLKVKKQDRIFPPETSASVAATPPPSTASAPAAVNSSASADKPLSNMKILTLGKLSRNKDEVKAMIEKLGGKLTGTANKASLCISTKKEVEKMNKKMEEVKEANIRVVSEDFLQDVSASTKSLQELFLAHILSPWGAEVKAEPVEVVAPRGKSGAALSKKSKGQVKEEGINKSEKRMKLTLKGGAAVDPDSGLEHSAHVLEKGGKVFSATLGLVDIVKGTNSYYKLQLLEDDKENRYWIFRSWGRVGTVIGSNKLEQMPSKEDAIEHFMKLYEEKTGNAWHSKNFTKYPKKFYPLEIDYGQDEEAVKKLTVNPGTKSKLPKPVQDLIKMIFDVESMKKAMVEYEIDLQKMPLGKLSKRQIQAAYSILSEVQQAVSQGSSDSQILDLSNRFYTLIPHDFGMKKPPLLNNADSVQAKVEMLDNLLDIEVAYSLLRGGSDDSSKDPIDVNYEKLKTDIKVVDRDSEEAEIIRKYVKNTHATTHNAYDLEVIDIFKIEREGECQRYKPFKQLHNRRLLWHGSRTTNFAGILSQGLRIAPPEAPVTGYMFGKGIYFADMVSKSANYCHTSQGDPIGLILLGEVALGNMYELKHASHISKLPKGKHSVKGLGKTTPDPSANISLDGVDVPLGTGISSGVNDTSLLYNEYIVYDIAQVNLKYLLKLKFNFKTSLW
UniProt P13010: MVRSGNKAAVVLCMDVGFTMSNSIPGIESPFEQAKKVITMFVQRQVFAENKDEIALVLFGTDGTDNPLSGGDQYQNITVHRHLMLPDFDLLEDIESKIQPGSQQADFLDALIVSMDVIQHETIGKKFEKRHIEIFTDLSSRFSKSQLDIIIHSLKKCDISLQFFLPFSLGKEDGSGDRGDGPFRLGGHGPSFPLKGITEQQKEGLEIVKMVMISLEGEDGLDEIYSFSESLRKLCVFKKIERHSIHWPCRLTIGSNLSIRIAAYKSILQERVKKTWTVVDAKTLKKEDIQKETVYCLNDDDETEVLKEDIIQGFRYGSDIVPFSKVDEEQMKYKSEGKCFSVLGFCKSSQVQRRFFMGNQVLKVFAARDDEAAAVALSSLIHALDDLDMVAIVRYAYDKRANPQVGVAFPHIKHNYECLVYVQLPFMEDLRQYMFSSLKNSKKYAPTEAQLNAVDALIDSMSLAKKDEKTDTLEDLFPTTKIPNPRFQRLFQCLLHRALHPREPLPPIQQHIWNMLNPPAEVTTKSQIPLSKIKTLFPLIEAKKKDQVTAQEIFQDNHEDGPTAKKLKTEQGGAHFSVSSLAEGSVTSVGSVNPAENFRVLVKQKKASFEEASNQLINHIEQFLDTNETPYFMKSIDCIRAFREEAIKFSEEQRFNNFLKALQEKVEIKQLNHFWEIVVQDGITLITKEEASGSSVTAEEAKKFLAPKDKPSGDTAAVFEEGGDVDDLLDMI
UniProt P14618: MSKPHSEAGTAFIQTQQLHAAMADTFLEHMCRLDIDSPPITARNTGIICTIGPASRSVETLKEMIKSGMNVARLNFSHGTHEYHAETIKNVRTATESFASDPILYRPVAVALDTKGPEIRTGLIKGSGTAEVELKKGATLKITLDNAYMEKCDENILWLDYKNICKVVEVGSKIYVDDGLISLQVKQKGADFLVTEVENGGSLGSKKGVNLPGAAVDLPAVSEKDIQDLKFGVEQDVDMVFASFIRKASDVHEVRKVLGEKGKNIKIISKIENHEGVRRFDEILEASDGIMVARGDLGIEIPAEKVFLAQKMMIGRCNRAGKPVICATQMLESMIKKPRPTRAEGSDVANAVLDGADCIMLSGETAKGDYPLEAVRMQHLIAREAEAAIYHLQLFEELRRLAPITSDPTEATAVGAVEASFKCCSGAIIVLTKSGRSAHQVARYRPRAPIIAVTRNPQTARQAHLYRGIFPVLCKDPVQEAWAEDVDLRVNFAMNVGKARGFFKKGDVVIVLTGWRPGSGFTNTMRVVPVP

B1: DEK (protein, UniProt P35659 1-375)
chain: MSASAPAAEGEGTPTQPASEKEPEMPGPREESEEEEDEDDEEEEEEEKEKSLIVEGKREKKKVERLTMQVSSLQREPFTIAQGKGQKLCEIERIHFFLSKKKTDELRNLHKLLYNRPGTVSSLKKNVGQFSGFPFEKGSVQYKKKEEMLKKFRNAMLKSICEVLDLERSGVNSELVKRILNFLMHPKPSGKPLPKSKKTCSKGSKKERNSSGMARKAKRTKCPEILSDESSSDEDEKKNKEESSDDEDKESEEEPPKKTAKREKPKQKATSKSKKSVKSANVKKADSSTTKKNQNSSKKESESEDSSDDEPLIKKLKKPPTDEELKETIKKLLASANLEEVTMKQICKKVYENYPTYDLTERKDFIKTTVKELIS
B2: MYBBP1A (protein, UniProt Q9BQG0 1-1328)
chain: MESRDPAQPMSPGEATQSGARPADRYGLLKHSREFLDFFWDIAKPEQETRLAATEKLLEYLRGRPKGSEMKYALKRLITGLGVGRETARPCYSLALAQLLQSFEDLPLCSILQQIQEKYDLHQVKKAMLRPALFANLFGVLALFQSGRLVKDQEALMKSVKLLQALAQYQNHLQEQPRKALVDILSEVSKATLQEILPEVLKADLNIILSSPEQLELFLLAQQKVPSKLKKLVGSVNLFSDENVPRLVNVLKMAASSVKKDRKLPAIALDLLRLALKEDKFPRFWKEVVEQGLLKMQFWPASYLCFRLLGAALPLLTKEQLHLVMQGDVIRHYGEHVCTAKLPKQFKFAPEMDDYVGTFLEGCQDDPERQLAVLVAFSSVTNQGLPVTPTFWRVVRFLSPPALQGYVAWLRAMFLQPDLDSLVDFSTNNQKKAQDSSLHMPERAVFRLRKWIIFRLVSIVDSLHLEMEEALTEQVARFCLFHSFFVTKKPTSQIPETKHPFSFPLENQAREAVSSAFFSLLQTLSTQFKQAPGQTQGGQPWTYHLVQFADLLLNHSHNVTTVTPFTAQQRQAWDRMLQTLKELEAHSAEARAAAFQHLLLLVGIHLLKSPAESCDLLGDIQTCIRKSLGEKPRRSRTKTIDPQEPPWVEVLVEILLALLAQPSHLMRQVARSVFGHICSHLTPRALQLILDVLNPETSEDENDRVVVTDDSDERRLKGAEDKSEEGEDNRSSESEEESEGEESEEEERDGDVDQGFREQLMTVLQAGKALGGEDSENEEELGDEAMMALDQSLASLFAEQKLRIQARRDEKNKLQKEKALRRDFQIRVLDLVEVLVTKQPENALVLELLEPLLSIIRRSLRSSSSKQEQDLLHKTARIFTHHLCRARRYCHDLGERAGALHAQVERLVQQAGRQPDSPTALYHFNASLYLLRVLKGNTAEGCVHETQEKQKAGTDPSHMPTGPQAASCLDLNLVTRVYSTALSSFLTKRNSPLTVPMFLSLFSRHPVLCQSLLPILVQHITGPVRPRHQACLLLQKTLSMREVRSCFEDPEWKQLMGQVLAKVTENLRVLGEAQTKAQHQQALSSLELLNVLFRTCKHEKLTLDLTVLLGVLQGQQQSLQQGAHSTGSSRLHDLYWQAMKTLGVQRPKLEKKDAKEIPSATQSPISKKRKKKGFLPETKKRKKRKSEDGTPAEDGTPAATGGSQPPSMGRKKRNRTKAKVPAQANGTPTTKSPAPGAPTRSPSTPAKSPKLQKKNQKPSQVNGAPGSPTEPAGQKQHQKALPKKGVLGKSPLSALARKKARLSLVIRSPSLLQSGAKKKAQVRKAGKP
B3: GTF2H4 (protein, UniProt Q92759 1-462)
chain: MESTPSRGLNRVHLQCRNLQEFLGGLSPGVLDRLYGHPATCLAVFRELPSLAKNWVMRMLFLEQPLPQAAVALWVKKEFSKAQEESTGLLSGLRIWHTQLLPGGLQGLILNPIFRQNLRIALLGGGKAWSDDTSQLGPDKHARDVPSLDKYAEERWEVVLHFMVGSPSAAVSQDLAQLLSQAGLMKSTEPGEPPCITSAGFQFLLLDTPAQLWYFMLQYLQTAQSRGMDLVEILSFLFQLSFSTLGKDYSVEGMSDSLLNFLQHLREFGLVFQRKRKSRRYYPTRLAINLSSGVSGAGGTVHQPGFIVVETNYRLYAYTESELQIALIALFSEMLYRFPNMVVAQVTRESVQQAIASGITAQQIIHFLRTRAHPVMLKQTPVLPPTITDQIRLWELERDRLRFTEGVLYNQFLSQVDFELLLAHARELGVLVFENSAKRLMVVTPAGHSDVKRFWKRQKHSS
B4: NFKB2 (protein, UniProt Q00653 1-900)
chain: MESCYNPGLDGIIEYDDFKLNSSIVEPKEPAPETADGPYLVIVEQPKQRGFRFRYGCEGPSHGGLPGASSEKGRKTYPTVKICNYEGPAKIEVDLVTHSDPPRAHAHSLVGKQCSELGICAVSVGPKDMTAQFNNLGVLHVTKKNMMGTMIQKLQRQRLRSRPQGLTEAEQRELEQEAKELKKVMDLSIVRLRFSAFLRASDGSFSLPLKPVISQPIHDSKSPGASNLKISRMDKTAGSVRGGDEVYLLCDKVQKDDIEVRFYEDDENGWQAFGDFSPTDVHKQYAIVFRTPPYHKMKIERPVTVFLQLKRKRGGDVSDSKQFTYYPLVEDKEEVQRKRRKALPTFSQPFGGGSHMGGGSGGAAGGYGGAGGGGSLGFFPSSLAYSPYQSGAGPMGCYPGGGGGAQMAATVPSRDSGEEAAEPSAPSRTPQCEPQAPEMLQRAREYNARLFGLAQRSARALLDYGVTADARALLAGQRHLLTAQDENGDTPLHLAIIHGQTSVIEQIVYVIHHAQDLGVVNLTNHLHQTPLHLAVITGQTSVVSFLLRVGADPALLDRHGDSAMHLALRAGAGAPELLRALLQSGAPAVPQLLHMPDFEGLYPVHLAVRARSPECLDLLVDSGAEVEATERQGGRTALHLATEMEELGLVTHLVTKLRANVNARTFAGNTPLHLAAGLGYPTLTRLLLKAGADIHAENEEPLCPLPSPPTSDSDSDSEGPEKDTRSSFRGHTPLDLTCSTKVKTLLLNAAQNTMEPPLTPPSPAGPGLSLGDTALQNLEQLLDGPEAQGSWAELAERLGLRSLVDTYRQTTSPSGSLLRSYELAGGDLAGLLEALSDMGLEEGVRLLRGPETRDKLPSTAEVKEDSAYGSQSVEQEAEKLGPPPEPPGGLCHGHPQPQVH
B5: TXN (protein, UniProt P10599 1-105)
chain: MVKQIESKTAFQEALDAAGDKLVVVDFSATWCGPCKMIKPFFHSLSEKYSNVIFLEVDVDDCQDVASECEVKCMPTFQFFKKGQKVGEFSGANKEKLEATINELV

target: T1, Flag-HA-RNF8 (UniProt O76064); test: affinity purification with mass spectrometry; two-way screen: cells transfected with Flag-HA-RNF8, IP on anti-Flag-M2 beads, eluate IP on anti-HA beads; in parallel IP with an anti-RNF8 antibody; SDS-PAGE, silver staining, bands to LC-MS; the two protein sets intersected (218 proteins)
T1 sequence: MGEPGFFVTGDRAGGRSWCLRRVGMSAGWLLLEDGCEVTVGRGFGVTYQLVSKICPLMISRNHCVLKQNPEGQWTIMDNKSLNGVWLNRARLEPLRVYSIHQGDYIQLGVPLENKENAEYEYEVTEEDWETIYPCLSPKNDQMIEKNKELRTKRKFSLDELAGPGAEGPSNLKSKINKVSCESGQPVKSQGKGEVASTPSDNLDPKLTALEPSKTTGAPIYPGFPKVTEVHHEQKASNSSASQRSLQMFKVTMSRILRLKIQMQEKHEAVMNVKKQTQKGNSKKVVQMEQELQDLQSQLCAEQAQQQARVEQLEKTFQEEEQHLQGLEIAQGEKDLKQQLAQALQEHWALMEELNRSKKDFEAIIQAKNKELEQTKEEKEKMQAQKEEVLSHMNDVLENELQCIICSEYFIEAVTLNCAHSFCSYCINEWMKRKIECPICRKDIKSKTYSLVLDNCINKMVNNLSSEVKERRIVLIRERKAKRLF

binding, binds:
B1
B2
B3
B4
B5

target: T1, Flag-HA-RNF8; test: as above; remark: another data set of the same source

binding, binds:
PCNA (from UniProt P12004 1-261)
PRMT5 (from UniProt O14744 1-637)
ENO1 (from UniProt P06733 1-434)
RNF2 (from UniProt Q99496 1-336)
POLR1A (from UniProt O95602 1-1720)
MEF2C (from UniProt Q06413 1-473)
DDX3X (from UniProt O00571 1-662)
NPM1 (from UniProt P06748 1-294)
CDK9 (from UniProt P50750 1-372)
AHCTF1 (from UniProt Q8WYP5 1-2266)
HCFC1
APEX1 (from UniProt P27695 1-318)
MAPK1 (from UniProt P28482 1-360)
FLNA (from UniProt P21333 1-2647)
MORF4L1 (from UniProt Q9UBU8 1-362)
EWSR1 (from UniProt Q01844 1-656)
COPS5 (from UniProt Q92905 1-334)
SMARCA2 (from UniProt P51531 1-1590)
PPP2CA (from UniProt P67775 1-309)
CHD4 (from UniProt Q14839 1-1912)
TP53 (from UniProt P04637 1-393)
SND1 (from UniProt Q7KZF4 1-910)
TP53BP1 (from UniProt Q12888 1-1972)
YWHAB (from UniProt P31946 1-246)
PBRM1 (from UniProt Q86U86 1-1689)
ACTL6A (from UniProt O96019 1-429)
FXR1 (from UniProt P51114 1-621)
PSMC2 (from UniProt P35998 1-433)
ASCC3 (from UniProt Q8N3C0 1-2202)
HNRNPK (from UniProt P61978 1-463)
NUP98 (from UniProt P52948 1-880)
RBBP4 (from UniProt Q09028 1-425)
RUVBL1 (from UniProt Q9Y265 1-456)
YBX1 (endogenous) (from UniProt P67809 1-324)
WDR77 (from UniProt Q9BQA1 1-342)
SRSF1 (from UniProt Q07955 1-248)
PARP1 (from UniProt P09874 1-1014)
XRCC5 (from UniProt P13010 1-732)
PKM (from UniProt P14618 1-531)
PYCR
RAD51 (from UniProt Q06609 1-339)
DAXX (from UniProt Q9UER7 1-740)
HDAC1 (from UniProt Q13547 1-482)
MORF4L2 (from UniProt Q15014 1-288)
XRCC6 (from UniProt P12956 1-609)
DDB1 (from UniProt Q16531 1-1140)
MACF1 (from UniProt Q9UPN3 1-7388)
